Results published in article PMC9848259 (Journal of Enzyme Inhibition and Medicinal Chemistry, 2023).
These are yes or no findings as the source states them, for the method shown.

Protein sequences, listed by entry. Tags and fused reporters are not part of them. Residues count along the entry.
UniProt P22303, residues 52-577: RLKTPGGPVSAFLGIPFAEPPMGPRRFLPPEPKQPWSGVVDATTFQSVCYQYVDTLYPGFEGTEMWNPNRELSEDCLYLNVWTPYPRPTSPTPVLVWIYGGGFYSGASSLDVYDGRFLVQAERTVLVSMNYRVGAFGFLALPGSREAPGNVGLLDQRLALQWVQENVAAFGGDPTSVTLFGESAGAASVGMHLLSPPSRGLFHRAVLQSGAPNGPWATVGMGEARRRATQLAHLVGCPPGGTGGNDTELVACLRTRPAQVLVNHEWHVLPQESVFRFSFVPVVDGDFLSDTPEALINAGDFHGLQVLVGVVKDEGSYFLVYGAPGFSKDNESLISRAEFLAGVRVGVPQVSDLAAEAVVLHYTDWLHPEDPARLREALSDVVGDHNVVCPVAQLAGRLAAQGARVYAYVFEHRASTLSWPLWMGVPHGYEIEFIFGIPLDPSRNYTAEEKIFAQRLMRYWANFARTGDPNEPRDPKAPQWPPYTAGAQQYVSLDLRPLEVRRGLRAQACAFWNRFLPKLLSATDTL
UniProt P27338, residues 1-489: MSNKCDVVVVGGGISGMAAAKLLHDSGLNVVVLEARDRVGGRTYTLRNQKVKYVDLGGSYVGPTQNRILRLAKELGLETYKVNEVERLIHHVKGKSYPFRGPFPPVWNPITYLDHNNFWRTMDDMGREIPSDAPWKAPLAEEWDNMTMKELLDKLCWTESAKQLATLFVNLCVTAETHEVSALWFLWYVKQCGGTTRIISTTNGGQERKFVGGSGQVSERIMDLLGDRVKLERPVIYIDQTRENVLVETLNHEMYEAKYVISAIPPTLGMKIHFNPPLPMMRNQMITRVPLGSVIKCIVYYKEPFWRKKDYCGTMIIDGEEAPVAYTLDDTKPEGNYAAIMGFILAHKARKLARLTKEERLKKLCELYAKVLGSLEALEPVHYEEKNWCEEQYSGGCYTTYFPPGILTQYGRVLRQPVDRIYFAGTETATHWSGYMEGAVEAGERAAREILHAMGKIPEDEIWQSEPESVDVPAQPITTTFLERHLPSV

Experiments:
[1] = biological target: human acetylcholinesterase (pGBKT7-hACHE, aa 52-577) (human) (UniProt P22303); experiment: two-hybrid; Matchmaker Gold; small scale mating (5 ml) of Y2HGold [pGBKT7-hACHE] bait with Y187 preys, no hybrid ligand; DDO agar with aureobasidin A (200 ng/ml) and X-alpha-Gal (40 ug/ml) (DDO/X/A)
[2] = biological target: human acetylcholinesterase (pGBKT7-hACHE, aa 52-577) (human) (UniProt P22303); experiment: yeast three-hybrid; small scale mating (10 ml) of bait and prey strains with 10 uM hybrid ligand 3e; DDO agar with 10 uM ligand, aureobasidin A (200 ng/ml) and X-alpha-Gal (40 ug/ml); blue colonies moved to QDO/X/A agar with and without 10 uM ligand

Substance: human microtubule associated protein tau (pGADT7-hMAPT, aa 1-758) (from UniProt P10636-1 1-758)
- binding [1]: no binding
- binding [2]: no binding

Substance: human monoamine oxidase B, cytoplasmic domain (pGADT7-hMAO B, aa 1-489) (from UniProt P27338 1-489) (domain or fragment)
- binding [1]: no binding
- binding [2]: no binding
